Source: PMC3769308
No constants are given. Whether binding was seen depends on the method and setting. In cells and extracts the contact can be indirect. Some entries that bind do so weakly or less than the wild type.

Sequences of proteins named here, by UniProt entry; tags and fusion partners are left off. Residues count along the entry.
UniProt P9WHT9, residues 58-291: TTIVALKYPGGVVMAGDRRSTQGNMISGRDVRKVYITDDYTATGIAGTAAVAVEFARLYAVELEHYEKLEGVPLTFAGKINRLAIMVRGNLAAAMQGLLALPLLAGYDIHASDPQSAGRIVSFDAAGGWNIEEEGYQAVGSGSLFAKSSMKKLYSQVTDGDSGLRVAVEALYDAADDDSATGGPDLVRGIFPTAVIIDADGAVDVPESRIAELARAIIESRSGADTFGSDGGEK
UniProt P9WHU1: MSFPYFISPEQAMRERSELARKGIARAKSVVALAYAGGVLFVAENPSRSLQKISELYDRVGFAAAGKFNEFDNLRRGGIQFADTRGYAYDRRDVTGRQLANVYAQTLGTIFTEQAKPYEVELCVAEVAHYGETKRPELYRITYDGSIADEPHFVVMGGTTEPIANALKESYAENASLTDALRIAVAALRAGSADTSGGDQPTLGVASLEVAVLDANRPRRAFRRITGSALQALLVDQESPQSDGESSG

Molecular target: PrcB, His-tagged beta subunit of the Mtb proteasome core particle (Mycobacterium tuberculosis) (UniProt P9WHT9)
Test: pull-down

PrcA, alpha subunit of the Mtb proteasome core particle (wild type) (from UniProt P9WHU1 1-248)
binding: binds
